From the supplement of paper PMC11348887
The other results are listed elsewhere or left out. Most entries show no effect beyond the scatter of the controls.

Columns and labels:
Settings in all cases: 5 µM; treatment: days 7-14 after plating, readout day 21
[1] = test system: hPSC-derived cortical neurons (WA09); test: nucleus area z-score vs screen plate; higher = larger nuclei (more mature)
[2] = test system: hPSC-derived cortical neurons (WA09); test: total neurite length per nucleus (MAP2) z-score; higher = more neurite growth
[3] = test system: hPSC-derived cortical neurons (WA09); test: nucleus roundness z-score vs screen plate; higher = rounder nuclei (more mature)
[4] = test system: hPSC-derived cortical neurons (WA09); test: KCl-induced FOS+/EGR-1+ double-positive nuclei fraction z-score (KCl minus unstimulated); higher = stronger activity-induced IEG response

Compound | nucleus area z-score [1] | total neurite length per nucleus (z-score) [2] | nucleus roundness z-score [3] | KCl-induced FOS+/EGR-1+ double-positive nuclei fraction z-score [4]
C[C@H]1CCC/C=C/[C@@H]2C[C@H](O)C[C@H]2[C@H](O)/C=C/C(=O)O1 [Brefeldin A] | -19.1 | -5.99 | -5.39 | -1.44
O=C(O)C(=O)c1cn(Cc2ccccc2)c2ccc(-c3ccc(OC(F)(F)F)cc3)cc12 [Tiplaxtinin (PAI-039)] | -0.363 | -0.0224 | -0.0668 | -0.533
C[C@]12CC[C@H](O)CC1=CC[C@@H]1[C@@H]2CC[C@]2(C)C(=O)CC[C@@H]12 [Dehydroepiandrosterone (DHEA)] | -0.411 | 0.832 | 0.366 | 0.833
O=C(NCC1CCOCC1)c1cnc(Nc2ccc(Cl)cc2Cl)nc1C(F)(F)F | 0.122 | 1.94 | 1.01 | -0.856
CC(O)(CS(=O)(=O)c1ccc(F)cc1)C(=O)Nc1ccc(C#N)c(C(F)(F)F)c1 (configuration not stated) [Bicalutamide] | 1.14 | 0.229 | 1.21 | 1.25
Cc1c(Cl)c(OCC(=O)N2CCN(C)CC2)nc2sc(C(=O)NC3CC3)c(N)c12 | 1.36 | 0.425 | -0.223 | -0.0616
C[C@@H]1O[C@@H](O[C@H]2C[C@@H](O)[C@]3(CO)[C@H]4[C@H](O)C[C@]5(C)[C@@H](C6=CC(=O)OC6)CC[C@]5(O)[C@@H]4CC[C@]3(O)C2)[C@H](O)[C@H](O)[C@H]1O [Ouabain] | -7.31 | -0.302 | -5.05 | 1.31
CC(=O)NC1CCSC1=O (configuration not stated) [Citiolone] | -0.0481 | -0.528 | -0.134 | -0.731
